Test results reported in the supplement of paper PMC8326762, “A Small Molecule Inhibitor of Pex3–Pex19 Interaction Disrupts Glycosome Biogenesis and Causes Lethality in Trypanosoma brucei” (Frontiers in Cell and Developmental Biology, 2021).
Structures can show the parent of a compound that is named as a salt. The list shows a part of the results. Single values of this set are uncertain.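 Yeast growth was read as optical density at 600 nm. The two-hybrid strains grew without histidine, so growth needed the Pex3–Pex19 binding; a compound counted as trypanosome-selective if it cut growth of the trypanosome-pair strain by more than 65% and the human-pair strain by less than 65%.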

Each molecule was assayed on Saccharomyces cerevisiae HF7c pdr5Δ (assay: general growth inhibition of yeast HF7c pdr5Δ in -Leu -Trp medium, relative to DMSO; higher = stronger general growth inhibition). Details: 100 µM; 24 h.
For `Oc1ccc(/C=C/c2cc(O)cc(O)c2)cc1` [Resveratrol], the general growth inhibition was 45%. For `COC(=O)C1=CO[C@@H](O)[C@@H]2C(CO)=CC[C@H]12` [Genipin], the general growth inhibition was 32.9%. In the case of `CN1CCc2ccccc2Cc2[nH]c3ccccc3c2CC1`, the general growth inhibition is reported as 48.4%. `Clc1ccccc1C(c1ccccc1)(c1ccccc1)n1ccnc1` [Clotrimazole] showed a general growth inhibition of 72.4%. Work on `CC(=O)N1CCN(c2ccc(OCC3COC(Cn4ccnc4)(c4ccc(Cl)cc4Cl)O3)cc2)CC1` (configuration not stated) [Ketoconazole] yielded a general growth inhibition of 85.4%. For `CCN1CCCC1CNC(=O)c1cc(S(N)(=O)=O)ccc1OC` (single isomer, unassigned; (-)) [(-)-Sulpiride], the general growth inhibition was 60.7%. `O=C(Nc1ccncc1)c1cc([N+](=O)[O-])ccc1Cl` gave a general growth inhibition of 45.2%. In the case of `CCCCC#Cc1nc(NC)c2ncn([C@@H]3O[C@H](CO)[C@@H](O)[C@H]3O)c2n1`, the general growth inhibition is reported as 42.7%. For `Cc1nnc(C(C)C)n1C1C[C@H]2CC[C@@H](C1)N2CC[C@H](NC(=O)C1CCC(F)(F)CC1)c1ccccc1` (stereo in doubt) [Maraviroc], the general growth inhibition was 46.5%. `O=C(Nc1ccc([N+](=O)[O-])cc1Cl)c1cc(Cl)ccc1O` [Niclosamide] showed a general growth inhibition of 33.4%. In the case of `O=[N+]([O-])c1ccc(-c2nc(-c3ccc(F)cc3)c(-c3ccncc3)[nH]2)cc1`, the general growth inhibition is reported as -1.49%. `CC[C@]1(O)C[C@@H]2CN(CCc3c([nH]c4ccccc34)[C@@](C(=O)OC)(c3cc4c(cc3OC)N(C)[C@H]3[C@@](O)(C(=O)OC)[C@H](OC(C)=O)[C@]5(CC)C=CCN6CC[C@]43[C@@H]65)C2)C1` [Vinblastine sulfate salt] was tested, and the general growth inhibition was 48.7%.
